Test results taken from paper PMC11406046.

Sequences of proteins named here, by UniProt entry; tags and fusion partners are left off.
UniProt Q15327: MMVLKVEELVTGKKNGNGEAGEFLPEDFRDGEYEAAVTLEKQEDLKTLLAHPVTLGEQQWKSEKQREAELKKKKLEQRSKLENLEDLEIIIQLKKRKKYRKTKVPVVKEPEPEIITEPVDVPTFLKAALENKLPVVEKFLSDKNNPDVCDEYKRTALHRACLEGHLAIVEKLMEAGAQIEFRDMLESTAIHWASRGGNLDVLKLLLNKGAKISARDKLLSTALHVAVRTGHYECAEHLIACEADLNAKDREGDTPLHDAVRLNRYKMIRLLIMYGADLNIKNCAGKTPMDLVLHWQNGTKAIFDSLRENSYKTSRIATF
UniProt Q5T4S7: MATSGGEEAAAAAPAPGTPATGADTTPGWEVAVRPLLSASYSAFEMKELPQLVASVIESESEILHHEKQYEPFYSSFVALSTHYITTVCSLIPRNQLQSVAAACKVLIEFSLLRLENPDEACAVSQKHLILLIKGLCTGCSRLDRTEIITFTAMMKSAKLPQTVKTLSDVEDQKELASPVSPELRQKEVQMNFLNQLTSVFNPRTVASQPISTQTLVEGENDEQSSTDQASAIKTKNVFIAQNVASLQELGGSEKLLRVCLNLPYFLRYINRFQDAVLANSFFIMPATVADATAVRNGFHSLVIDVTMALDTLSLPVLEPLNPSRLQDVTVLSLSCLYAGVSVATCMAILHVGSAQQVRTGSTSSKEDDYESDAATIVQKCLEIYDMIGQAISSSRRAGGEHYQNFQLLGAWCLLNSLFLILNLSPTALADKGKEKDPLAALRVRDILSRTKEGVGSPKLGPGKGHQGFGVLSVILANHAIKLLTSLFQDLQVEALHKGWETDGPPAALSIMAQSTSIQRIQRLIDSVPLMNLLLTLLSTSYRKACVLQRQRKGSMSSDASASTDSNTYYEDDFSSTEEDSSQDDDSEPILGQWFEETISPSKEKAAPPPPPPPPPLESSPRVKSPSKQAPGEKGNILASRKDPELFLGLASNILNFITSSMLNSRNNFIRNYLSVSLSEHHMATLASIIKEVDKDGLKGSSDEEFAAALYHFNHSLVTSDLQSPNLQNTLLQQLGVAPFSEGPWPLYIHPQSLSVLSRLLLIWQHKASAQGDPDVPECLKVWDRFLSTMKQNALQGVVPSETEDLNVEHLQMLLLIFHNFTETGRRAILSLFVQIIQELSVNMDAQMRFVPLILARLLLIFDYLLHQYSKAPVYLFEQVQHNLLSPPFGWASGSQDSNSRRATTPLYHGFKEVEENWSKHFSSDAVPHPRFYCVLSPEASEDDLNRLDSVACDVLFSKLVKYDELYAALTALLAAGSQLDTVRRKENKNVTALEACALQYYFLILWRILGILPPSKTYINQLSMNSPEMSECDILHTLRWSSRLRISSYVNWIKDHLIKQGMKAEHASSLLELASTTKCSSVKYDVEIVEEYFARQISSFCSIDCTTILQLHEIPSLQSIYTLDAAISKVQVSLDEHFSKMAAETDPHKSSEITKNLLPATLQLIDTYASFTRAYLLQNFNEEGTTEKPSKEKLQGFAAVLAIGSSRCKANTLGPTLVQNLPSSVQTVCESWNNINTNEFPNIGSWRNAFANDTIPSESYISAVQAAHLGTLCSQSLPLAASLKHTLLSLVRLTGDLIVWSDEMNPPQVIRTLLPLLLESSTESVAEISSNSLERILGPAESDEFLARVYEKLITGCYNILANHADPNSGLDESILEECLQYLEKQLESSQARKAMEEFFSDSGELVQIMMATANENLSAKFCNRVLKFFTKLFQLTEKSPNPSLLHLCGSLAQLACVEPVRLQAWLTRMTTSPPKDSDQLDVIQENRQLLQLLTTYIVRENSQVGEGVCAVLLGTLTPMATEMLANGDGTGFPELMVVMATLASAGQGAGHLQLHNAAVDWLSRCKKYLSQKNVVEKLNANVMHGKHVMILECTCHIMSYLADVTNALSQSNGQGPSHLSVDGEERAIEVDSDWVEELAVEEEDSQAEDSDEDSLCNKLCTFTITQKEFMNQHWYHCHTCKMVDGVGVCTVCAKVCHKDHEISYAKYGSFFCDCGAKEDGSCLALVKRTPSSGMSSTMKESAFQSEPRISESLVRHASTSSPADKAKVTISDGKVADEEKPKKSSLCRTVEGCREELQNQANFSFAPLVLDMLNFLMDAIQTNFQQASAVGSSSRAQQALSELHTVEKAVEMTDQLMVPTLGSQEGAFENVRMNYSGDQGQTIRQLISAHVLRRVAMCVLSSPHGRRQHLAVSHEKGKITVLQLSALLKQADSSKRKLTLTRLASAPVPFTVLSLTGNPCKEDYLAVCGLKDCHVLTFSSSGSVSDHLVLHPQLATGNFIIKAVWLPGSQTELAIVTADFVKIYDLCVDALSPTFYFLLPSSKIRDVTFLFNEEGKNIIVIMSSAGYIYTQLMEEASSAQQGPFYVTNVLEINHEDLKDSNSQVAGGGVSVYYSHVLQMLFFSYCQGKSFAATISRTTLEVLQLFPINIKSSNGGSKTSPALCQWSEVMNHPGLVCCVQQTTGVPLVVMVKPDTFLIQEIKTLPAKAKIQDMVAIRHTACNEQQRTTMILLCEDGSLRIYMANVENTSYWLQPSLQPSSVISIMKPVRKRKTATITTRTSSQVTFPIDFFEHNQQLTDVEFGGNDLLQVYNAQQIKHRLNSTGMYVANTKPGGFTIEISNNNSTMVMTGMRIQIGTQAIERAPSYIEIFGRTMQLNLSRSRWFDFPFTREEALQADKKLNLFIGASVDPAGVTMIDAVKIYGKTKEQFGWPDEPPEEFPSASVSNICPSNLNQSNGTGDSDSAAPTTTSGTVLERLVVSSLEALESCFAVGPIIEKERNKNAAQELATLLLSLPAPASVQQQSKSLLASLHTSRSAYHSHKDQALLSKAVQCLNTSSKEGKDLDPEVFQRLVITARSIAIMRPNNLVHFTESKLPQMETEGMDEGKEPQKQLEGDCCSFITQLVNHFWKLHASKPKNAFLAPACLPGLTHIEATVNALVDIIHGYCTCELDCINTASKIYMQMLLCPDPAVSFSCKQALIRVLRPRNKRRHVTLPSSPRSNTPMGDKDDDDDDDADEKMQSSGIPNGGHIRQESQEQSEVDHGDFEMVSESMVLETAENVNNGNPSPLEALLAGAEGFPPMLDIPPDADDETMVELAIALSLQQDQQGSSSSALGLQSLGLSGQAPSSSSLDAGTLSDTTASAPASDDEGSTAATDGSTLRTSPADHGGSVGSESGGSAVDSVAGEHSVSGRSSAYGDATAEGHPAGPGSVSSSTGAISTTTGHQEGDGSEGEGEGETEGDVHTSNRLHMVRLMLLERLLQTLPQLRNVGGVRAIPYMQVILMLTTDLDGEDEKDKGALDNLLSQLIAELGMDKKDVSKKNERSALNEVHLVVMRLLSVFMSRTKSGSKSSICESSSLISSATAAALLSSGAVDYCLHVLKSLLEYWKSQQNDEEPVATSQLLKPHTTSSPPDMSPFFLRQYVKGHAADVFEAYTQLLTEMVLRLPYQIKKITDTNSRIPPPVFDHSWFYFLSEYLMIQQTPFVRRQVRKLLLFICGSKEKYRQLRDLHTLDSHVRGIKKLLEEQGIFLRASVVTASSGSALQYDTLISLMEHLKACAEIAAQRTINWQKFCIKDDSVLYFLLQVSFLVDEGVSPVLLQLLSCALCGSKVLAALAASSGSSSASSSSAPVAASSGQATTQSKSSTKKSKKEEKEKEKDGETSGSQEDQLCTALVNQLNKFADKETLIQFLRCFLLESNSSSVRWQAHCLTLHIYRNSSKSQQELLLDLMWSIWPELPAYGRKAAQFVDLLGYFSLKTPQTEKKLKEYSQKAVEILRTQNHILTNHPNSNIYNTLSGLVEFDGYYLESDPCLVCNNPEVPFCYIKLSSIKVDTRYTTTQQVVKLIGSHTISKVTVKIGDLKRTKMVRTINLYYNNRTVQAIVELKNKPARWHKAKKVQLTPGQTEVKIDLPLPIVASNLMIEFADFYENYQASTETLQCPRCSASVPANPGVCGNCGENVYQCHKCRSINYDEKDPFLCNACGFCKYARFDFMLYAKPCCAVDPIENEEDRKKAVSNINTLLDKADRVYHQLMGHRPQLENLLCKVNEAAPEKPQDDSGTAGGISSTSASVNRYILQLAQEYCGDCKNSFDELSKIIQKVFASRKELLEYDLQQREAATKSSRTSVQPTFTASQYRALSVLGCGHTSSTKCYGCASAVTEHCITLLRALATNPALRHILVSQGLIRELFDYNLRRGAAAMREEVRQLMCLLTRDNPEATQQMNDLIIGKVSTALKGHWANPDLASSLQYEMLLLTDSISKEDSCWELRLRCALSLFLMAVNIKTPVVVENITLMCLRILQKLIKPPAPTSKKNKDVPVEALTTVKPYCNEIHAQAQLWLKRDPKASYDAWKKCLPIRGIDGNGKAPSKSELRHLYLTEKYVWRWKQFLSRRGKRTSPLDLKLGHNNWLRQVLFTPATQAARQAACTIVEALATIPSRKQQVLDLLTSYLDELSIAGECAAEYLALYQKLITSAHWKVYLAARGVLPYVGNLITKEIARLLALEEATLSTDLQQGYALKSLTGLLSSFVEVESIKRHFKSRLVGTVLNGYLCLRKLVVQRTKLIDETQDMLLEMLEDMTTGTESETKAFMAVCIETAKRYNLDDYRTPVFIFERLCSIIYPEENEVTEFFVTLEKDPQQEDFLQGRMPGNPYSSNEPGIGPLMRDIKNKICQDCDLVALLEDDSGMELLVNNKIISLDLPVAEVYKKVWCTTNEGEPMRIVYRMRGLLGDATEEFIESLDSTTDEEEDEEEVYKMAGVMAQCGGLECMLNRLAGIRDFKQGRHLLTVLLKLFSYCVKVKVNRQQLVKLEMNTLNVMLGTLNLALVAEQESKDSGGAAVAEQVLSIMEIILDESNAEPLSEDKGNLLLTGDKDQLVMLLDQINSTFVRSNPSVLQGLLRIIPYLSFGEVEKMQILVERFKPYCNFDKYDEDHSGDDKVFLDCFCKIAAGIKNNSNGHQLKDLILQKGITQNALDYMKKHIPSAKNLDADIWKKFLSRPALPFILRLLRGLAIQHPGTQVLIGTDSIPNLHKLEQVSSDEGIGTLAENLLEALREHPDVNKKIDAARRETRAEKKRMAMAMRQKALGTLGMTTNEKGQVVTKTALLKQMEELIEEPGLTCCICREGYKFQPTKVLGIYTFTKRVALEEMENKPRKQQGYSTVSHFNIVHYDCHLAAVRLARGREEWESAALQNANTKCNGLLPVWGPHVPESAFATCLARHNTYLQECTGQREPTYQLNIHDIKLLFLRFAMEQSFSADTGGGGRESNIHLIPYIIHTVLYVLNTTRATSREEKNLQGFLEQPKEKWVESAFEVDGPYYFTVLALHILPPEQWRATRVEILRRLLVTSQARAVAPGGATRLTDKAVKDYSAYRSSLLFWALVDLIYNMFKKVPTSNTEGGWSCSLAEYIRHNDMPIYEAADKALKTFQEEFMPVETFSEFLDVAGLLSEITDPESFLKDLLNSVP
UniProt O95573: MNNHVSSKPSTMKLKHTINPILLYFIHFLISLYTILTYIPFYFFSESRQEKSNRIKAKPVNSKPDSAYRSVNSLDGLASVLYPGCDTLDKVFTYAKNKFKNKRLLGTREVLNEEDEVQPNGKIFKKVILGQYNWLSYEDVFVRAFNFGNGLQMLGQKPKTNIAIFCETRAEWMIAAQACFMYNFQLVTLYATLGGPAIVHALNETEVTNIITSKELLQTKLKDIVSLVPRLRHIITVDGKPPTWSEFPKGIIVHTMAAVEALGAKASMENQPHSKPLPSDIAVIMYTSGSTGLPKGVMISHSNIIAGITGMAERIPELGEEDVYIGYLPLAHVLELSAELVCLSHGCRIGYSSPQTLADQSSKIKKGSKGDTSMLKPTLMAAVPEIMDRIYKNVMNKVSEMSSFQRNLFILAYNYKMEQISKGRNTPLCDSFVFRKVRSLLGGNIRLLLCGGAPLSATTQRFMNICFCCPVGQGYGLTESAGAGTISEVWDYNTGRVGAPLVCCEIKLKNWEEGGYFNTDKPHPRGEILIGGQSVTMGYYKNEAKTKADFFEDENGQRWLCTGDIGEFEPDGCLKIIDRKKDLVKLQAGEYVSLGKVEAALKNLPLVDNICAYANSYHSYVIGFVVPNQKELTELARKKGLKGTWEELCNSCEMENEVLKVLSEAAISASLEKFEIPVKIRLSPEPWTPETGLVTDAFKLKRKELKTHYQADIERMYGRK

Molecular target: FLAG-tagged ANKRD1 (ankyrin repeat domain 1), wild type (human) (UniProt Q15327)
Test: affinity purification with mass spectrometry; whole-cell lysates immunoprecipitated with FLAG primary antibodies, products analysed by mass spectrometry (IP-MS); cutoff = 4

TRIM25 (tripartite motif containing 25), endogenous in HK-2 cells (from UniProt Q14258 1-630) (enzyme)
binding: binds

UBR4 (from UniProt Q5T4S7 1-5183) (enzyme)
binding: binds

ACSL3 (acyl-coenzyme A synthetase long-chain family member 3), endogenous in HK-2 cells (from UniProt O95573 1-720)
binding: binds

These are yes or no findings as the source states them, for the method shown. In cells and extracts the contact can be indirect. A yes stands for co-enrichment or nearness to the bait. Other partners may have been found.
